Some of the results follow.
How the values were obtained:
Experiment in all cases: log2 fold change, soluble protein after heating vs DMSO (PISA); higher = thermal stabilisation; K562 lysate, 10 uM; active = over 0.2 and 3.5 SD of the protein, either way, in both replicates (recomputed)
vemurafenib = compound: CCCS(=O)(=O)Nc1ccc(F)c(C(=O)c2c[nH]c3ncc(-c4ccc(Cl)cc4)cc23)c1F [vemurafenib]
Procedure, shortened: (§1)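 K562 pellets were dounce-homogenised in PBS pH 7.4 with 1 mM MgCl2, and the crude extract at 1 mg/mL protein was treated with 10 μM compound for 30 min. Aliquots were heated for 3 min across 48°C-58°C, pooled, and brought to 0.5% NP-40 at 4°C; soluble protein was the supernatant after 21,000xg for 90 min. Soluble protein was quantified by TMTpro 16plex LC-MS/MS with channel sums equalised, and reported as log2 fold change in thermal stability against DMSO controls, with values from duplicates.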

The chains behind the UniProt entries cited, without tags or fusion partners. Where a name states a change or a piece, a line headed by the entry shows the natural chain unless it says otherwise.
UniProt Q7Z422: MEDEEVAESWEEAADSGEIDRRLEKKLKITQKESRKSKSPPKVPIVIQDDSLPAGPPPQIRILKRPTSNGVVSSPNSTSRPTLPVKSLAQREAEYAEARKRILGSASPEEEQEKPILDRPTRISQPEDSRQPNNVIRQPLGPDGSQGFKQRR
UniProt Q5VSL9: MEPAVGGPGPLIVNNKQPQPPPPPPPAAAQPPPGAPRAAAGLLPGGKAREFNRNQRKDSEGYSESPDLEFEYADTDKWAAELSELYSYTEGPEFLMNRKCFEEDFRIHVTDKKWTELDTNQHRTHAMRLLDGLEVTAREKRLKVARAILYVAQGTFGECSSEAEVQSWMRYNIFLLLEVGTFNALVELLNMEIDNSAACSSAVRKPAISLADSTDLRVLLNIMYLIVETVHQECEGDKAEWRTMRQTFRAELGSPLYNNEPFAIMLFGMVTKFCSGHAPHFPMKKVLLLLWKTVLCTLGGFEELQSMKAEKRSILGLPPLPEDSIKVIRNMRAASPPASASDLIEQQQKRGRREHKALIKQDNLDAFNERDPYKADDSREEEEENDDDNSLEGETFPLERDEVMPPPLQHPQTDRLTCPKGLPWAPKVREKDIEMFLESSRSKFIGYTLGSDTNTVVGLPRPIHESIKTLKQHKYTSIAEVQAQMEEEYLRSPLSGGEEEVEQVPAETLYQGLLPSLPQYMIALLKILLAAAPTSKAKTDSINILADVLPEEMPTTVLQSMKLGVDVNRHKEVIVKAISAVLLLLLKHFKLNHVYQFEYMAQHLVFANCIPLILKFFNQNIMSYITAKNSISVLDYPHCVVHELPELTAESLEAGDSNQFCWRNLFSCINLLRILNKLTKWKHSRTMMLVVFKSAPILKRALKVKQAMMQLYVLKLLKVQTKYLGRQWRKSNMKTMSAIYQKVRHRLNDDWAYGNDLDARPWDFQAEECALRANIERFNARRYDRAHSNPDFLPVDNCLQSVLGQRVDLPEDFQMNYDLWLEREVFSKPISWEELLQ
UniProt O95926: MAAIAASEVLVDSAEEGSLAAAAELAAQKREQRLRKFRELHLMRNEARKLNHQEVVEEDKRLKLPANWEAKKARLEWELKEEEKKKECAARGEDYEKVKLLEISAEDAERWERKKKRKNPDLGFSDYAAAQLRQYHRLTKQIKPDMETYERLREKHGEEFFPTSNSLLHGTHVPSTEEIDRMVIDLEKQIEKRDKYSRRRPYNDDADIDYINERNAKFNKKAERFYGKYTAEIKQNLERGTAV
UniProt O75528: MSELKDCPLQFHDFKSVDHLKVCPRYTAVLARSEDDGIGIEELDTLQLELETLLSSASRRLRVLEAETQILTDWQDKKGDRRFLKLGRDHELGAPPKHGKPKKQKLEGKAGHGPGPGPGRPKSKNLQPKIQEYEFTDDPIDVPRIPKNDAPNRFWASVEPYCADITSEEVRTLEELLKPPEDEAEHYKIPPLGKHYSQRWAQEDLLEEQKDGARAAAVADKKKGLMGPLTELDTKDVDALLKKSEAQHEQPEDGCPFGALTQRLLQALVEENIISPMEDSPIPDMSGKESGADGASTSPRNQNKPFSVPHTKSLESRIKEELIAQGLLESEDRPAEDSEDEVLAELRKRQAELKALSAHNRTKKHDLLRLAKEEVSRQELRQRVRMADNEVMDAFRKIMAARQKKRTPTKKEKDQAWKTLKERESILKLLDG
UniProt Q9NRP7: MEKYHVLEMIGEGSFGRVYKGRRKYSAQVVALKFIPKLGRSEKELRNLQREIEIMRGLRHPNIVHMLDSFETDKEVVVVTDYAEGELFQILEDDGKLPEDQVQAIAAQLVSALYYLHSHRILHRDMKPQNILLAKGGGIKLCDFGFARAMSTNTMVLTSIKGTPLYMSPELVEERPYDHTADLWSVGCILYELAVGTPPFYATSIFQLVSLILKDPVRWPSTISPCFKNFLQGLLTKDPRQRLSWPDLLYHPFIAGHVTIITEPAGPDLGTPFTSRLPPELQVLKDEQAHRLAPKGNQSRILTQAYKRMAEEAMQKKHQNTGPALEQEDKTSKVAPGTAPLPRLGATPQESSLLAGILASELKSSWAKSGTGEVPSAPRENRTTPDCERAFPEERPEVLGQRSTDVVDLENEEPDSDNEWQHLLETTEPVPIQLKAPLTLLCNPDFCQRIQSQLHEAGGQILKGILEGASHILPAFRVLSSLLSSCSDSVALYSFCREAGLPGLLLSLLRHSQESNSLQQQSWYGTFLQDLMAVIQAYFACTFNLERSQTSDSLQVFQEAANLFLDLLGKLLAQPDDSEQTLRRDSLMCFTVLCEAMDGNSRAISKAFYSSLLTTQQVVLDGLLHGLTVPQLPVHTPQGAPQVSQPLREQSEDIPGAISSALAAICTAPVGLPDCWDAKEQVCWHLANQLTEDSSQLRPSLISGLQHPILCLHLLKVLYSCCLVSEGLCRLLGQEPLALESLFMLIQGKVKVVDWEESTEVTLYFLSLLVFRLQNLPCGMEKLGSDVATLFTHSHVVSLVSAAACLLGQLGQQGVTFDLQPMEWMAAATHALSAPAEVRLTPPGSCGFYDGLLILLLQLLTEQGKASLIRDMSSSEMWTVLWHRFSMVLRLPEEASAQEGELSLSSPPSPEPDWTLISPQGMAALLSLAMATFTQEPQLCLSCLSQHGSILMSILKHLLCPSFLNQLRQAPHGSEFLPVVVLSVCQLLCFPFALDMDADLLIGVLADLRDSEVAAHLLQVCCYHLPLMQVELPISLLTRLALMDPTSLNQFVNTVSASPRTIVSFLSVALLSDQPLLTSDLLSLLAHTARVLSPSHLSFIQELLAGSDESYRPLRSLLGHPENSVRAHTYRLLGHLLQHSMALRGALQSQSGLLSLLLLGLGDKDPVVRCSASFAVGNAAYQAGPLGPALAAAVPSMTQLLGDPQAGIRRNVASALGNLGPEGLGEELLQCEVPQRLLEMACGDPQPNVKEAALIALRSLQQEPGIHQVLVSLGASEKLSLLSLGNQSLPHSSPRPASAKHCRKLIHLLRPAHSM
UniProt Q9UMZ2: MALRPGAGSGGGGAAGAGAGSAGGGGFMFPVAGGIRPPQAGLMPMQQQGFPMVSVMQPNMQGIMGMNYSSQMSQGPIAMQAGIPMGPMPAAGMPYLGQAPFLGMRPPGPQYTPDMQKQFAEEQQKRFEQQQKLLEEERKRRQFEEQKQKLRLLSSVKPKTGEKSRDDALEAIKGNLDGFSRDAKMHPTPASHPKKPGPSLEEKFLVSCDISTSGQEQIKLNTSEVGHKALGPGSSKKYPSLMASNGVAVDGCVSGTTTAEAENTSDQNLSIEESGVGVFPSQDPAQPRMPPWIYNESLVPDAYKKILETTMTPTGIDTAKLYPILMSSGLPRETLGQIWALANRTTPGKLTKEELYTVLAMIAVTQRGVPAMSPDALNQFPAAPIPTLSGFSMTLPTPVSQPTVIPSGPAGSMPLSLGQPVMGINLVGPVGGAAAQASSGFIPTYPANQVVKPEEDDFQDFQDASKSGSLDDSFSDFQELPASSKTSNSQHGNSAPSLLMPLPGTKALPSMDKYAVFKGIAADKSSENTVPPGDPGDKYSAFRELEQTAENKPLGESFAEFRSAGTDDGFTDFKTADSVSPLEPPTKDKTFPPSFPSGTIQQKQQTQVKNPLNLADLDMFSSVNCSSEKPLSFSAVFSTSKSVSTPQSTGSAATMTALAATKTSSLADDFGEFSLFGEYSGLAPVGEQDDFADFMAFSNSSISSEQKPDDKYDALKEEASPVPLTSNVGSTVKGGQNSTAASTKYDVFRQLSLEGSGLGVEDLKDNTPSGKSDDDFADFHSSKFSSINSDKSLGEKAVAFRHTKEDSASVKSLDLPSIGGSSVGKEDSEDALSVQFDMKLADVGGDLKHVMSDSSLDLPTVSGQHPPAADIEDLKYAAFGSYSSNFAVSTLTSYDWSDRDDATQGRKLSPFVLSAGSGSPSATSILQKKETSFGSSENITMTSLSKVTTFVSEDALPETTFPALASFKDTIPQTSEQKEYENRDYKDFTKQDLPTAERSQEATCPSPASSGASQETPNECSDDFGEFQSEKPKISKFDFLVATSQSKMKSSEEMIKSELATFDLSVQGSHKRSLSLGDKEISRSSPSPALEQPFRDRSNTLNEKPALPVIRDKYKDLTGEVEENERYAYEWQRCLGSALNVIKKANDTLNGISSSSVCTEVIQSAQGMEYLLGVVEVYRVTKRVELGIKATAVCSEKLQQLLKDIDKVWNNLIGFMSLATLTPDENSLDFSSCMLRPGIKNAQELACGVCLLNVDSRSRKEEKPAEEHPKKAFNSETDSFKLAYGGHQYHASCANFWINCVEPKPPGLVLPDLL
UniProt O60499: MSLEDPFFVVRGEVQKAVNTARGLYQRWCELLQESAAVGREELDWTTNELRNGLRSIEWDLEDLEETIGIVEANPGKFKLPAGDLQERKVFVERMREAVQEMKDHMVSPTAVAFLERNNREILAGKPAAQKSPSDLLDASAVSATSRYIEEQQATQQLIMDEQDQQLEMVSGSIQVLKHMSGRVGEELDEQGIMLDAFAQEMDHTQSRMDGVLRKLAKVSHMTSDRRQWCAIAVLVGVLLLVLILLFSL
UniProt P49848, whole entry, looked up: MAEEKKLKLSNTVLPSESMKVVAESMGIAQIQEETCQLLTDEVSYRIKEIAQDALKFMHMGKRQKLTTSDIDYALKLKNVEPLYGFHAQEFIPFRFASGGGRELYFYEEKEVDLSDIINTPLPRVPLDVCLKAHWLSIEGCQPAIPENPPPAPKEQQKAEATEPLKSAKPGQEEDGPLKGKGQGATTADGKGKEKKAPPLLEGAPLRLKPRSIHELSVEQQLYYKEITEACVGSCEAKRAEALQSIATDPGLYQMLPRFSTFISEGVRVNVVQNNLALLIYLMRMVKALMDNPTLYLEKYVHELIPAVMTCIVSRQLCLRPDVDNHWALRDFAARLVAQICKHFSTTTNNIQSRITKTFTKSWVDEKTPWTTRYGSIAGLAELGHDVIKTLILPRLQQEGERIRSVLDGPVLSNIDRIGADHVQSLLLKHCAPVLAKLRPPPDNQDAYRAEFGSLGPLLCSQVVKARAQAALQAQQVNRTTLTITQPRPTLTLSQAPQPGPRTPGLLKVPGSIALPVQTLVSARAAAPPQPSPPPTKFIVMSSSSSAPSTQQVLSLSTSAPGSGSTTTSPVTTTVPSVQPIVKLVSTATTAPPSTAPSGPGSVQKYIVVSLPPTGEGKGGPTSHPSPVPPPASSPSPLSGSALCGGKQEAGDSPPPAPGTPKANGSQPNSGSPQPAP
UniProt Q96C24: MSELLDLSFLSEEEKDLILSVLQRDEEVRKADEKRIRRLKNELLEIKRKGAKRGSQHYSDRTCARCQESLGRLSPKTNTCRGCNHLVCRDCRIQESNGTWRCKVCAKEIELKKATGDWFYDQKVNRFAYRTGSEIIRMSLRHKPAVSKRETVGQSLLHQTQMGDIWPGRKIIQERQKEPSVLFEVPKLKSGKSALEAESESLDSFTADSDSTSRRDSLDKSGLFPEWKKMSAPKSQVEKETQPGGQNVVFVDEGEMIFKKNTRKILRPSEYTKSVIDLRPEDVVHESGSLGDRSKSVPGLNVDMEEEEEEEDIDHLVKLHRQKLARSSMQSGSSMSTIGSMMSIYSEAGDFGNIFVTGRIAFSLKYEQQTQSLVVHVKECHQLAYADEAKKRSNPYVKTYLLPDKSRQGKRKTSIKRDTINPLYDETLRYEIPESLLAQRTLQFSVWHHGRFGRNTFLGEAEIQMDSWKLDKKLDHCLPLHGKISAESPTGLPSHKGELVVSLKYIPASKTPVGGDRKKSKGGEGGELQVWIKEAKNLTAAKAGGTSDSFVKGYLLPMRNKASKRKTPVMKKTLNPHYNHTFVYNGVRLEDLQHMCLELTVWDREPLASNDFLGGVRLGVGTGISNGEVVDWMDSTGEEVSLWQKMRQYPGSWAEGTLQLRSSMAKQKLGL
UniProt Q16514: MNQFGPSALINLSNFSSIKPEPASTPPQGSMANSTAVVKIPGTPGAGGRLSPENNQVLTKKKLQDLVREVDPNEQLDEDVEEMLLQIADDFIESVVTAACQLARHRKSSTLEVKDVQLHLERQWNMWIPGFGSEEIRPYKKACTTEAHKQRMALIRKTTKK
UniProt O94864: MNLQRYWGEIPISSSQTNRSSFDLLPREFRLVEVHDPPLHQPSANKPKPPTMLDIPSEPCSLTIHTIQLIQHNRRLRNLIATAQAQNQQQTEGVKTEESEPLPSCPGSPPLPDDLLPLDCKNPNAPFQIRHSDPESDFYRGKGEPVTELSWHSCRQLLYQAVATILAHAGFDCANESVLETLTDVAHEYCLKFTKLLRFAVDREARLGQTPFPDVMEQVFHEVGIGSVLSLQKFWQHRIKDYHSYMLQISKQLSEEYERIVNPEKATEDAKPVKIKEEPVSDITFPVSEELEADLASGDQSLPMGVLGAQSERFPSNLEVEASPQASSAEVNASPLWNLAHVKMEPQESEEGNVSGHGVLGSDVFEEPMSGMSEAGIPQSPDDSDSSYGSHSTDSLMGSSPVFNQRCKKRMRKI

[1] = compound: CCCS(=O)(=O)Nc1ccc(F)c(C(=O)c2c[nH]c3ncc(Cl)cc23)c1F
Procedure, shortened: as §1

barasertib = compound: CCN(CCCOc1ccc2c(Nc3cc(CC(=O)Nc4cccc(F)c4)[nH]n3)ncnc2c1)CCOP(=O)(O)O [barasertib]
Procedure, shortened: as §1

[2] = compound: CC[C@@H]1C(=O)N(C)c2cnc(Nc3ccc(C(=O)NC4CCN(C)CC4)cc3OC)nc2N1C1CCCC1
Procedure, shortened: as §1

volasertib = compound: CC[C@@H]1C(=O)N(C)c2cnc(Nc3ccc(C(=O)N[C@H]4CC[C@H](N5CCN(CC6CC6)CC5)CC4)cc3OC)nc2N1C(C)C [volasertib]
Procedure, shortened: as §1

[3] = compound: CCn1c(C(=O)N(C2CC2)C2CC2)cc2c3c(ncn3C)c(Nc3cc(C)n(C)n3)nc21
Procedure, shortened: as §1

[4] = compound: CCn1cc(-c2ccnc3[nH]c(-c4cccc(CN(C)C)c4)cc23)c(-c2ccc(NC(=O)N(C)C)cc2)n1
Procedure, shortened: as §1

[5] = compound: CN1CCC(CNc2ccc3ncc(-c4cccc(OC(F)(F)F)c4)n3n2)CC1
Procedure, shortened: as §1

saracatinib = compound: CN1CCN(CCOc2cc(OC3CCOCC3)c3c(Nc4c(Cl)ccc5c4OCO5)ncnc3c2)CC1 [saracatinib]
Procedure, shortened: as §1

sotrastaurin = compound: CN1CCN(c2nc(C3=C(c4c[nH]c5ccccc45)C(=O)NC3=O)c3ccccc3n2)CC1 [sotrastaurin]
Procedure, shortened: as §1

alvocidib = compound: CN1CC[C@H](c2c(O)cc(O)c3c(=O)cc(-c4ccccc4Cl)oc23)[C@H](O)C1 [alvocidib]
Procedure, shortened: as §1

Tubastatin A = compound: CN1CCc2c(c3ccccc3n2Cc2ccc(C(=O)NO)cc2)C1 [Tubastatin A]
Procedure, shortened: as §1

[6] = compound: CNC(=O)C1=CC=CC=C1NC2=NC(=NC=C2Cl)NC3=C(C=C(C=C3)N4CCOCC4)OC
Procedure, shortened: as §1

defactinib = compound: CNC(=O)c1ccc(Nc2ncc(C(F)(F)F)c(NCc3nccnc3N(C)S(C)(=O)=O)n2)cc1 [defactinib]
Procedure, shortened: as §1

[7] = compound: CNc1nc(-c2ccc3c(N)n[nH]c3c2)cc(N2C[C@@H](C(=O)NC3CCCCC3)CC[C@H]2C)n1
Procedure, shortened: as §1

encorafenib = compound: COC(=O)N[C@@H](C)CNc1nccc(-c2cn(C(C)C)nc2-c2cc(Cl)cc(NS(C)(=O)=O)c2F)n1 [encorafenib]
Procedure, shortened: as §1

[8] = compound: COC(=O)[C@H](CCSC)NC(=O)C1=C(C=C(C=C1)NC[C@H](CS)N)C2=CC=CC=C2
Procedure, shortened: as §1

alisertib = compound: COc1cc(Nc2ncc3c(n2)-c2ccc(Cl)cc2C(c2c(F)cccc2OC)=NC3)ccc1C(=O)O [alisertib]
Procedure, shortened: as §1

[9] = compound: COc1cc2nc(-c3cc(F)ccc3O)nc(N[C@@H]3CNC[C@H]3C(C)(C)O)c2cc1OC
Procedure, shortened: as §1

gefitinib = compound: COc1cc2ncnc(Nc3ccc(F)c(Cl)c3)c2cc1OCCCN1CCOCC1 [gefitinib]
Procedure, shortened: as §1

Measured: log2 fold change

STXBP2 (UniProt Q15833)
inactive: vemurafenib 0.006 | [1] 0.008 | barasertib 0.007 | [2] -0.052 | volasertib -0.054 | [3] 0.06 | [4] 0.002 | [5] -0.046 | saracatinib 0.007 | sotrastaurin 0.008 | alvocidib 0.021 | Tubastatin A -0.045 | [6] 0.015 | defactinib 0.011 | [7] 0.004 | encorafenib -0.003 | [8] 0.194 | alisertib 0.011 | [9] 0 | gefitinib 0.002

SZRD1 (UniProt Q7Z422)
inactive: vemurafenib 0.037 | [1] 0.012 | barasertib -0.039 | [2] 0.051 | volasertib 0.013 | [3] -0.061 | [4] 0.004 | [5] 0.103 | saracatinib 0.025 | sotrastaurin 0.057 | alvocidib -0.049 | Tubastatin A 0.046 | [6] 0.02 | defactinib -0.007 | [7] 0.055 | encorafenib -0.024 | [8] -0.034 | alisertib 0.002 | [9] 0.004 | gefitinib -0.003

SYNGR2 (UniProt O43760)
inactive: vemurafenib -0.053 | [1] 0.003 | barasertib 0.067 | [2] -0.004 | volasertib 0.034 | [3] -0.019 | [4] -0.188 | [5] 0.016 | saracatinib 0.045 | sotrastaurin 0.014 | alvocidib -0.019 | Tubastatin A 0.046 | [6] 0.003 | defactinib 0.076 | [7] 0.02 | encorafenib 0.075 | [8] -0.034 | alisertib 0.04 | [9] -0.065 | gefitinib -0.032

SUPT6H (UniProt Q7KZ85)
inactive: vemurafenib 0.062 | [1] 0.03 | barasertib 0.091 | [2] 0.064 | volasertib -0.04 | [3] 0.056 | [4] -0.055 | [5] 0.015 | saracatinib -0.028 | sotrastaurin 0.008 | alvocidib -0.004 | Tubastatin A -0.065 | [6] -0.011 | defactinib 0.016 | [7] 0.026 | encorafenib 0.007 | [8] 0.041 | alisertib -0.021 | [9] 0.007 | gefitinib 0.025

STRIP1 (UniProt Q5VSL9)
inactive: vemurafenib 0.018 | [1] -0.002 | barasertib 0.032 | [2] -0.005 | volasertib -0.008 | [3] 0.02 | [4] -0.009 | [5] -0.015 | saracatinib -0.011 | sotrastaurin -0.003 | alvocidib 0.002 | Tubastatin A -0.078 | [6] 0.019 | defactinib 0.024 | [7] 0.004 | encorafenib -0.015 | [8] 0.027 | alisertib -0.005 | [9] -0.017 | gefitinib 0.053

SYF2 (UniProt O95926)
inactive: vemurafenib -0.012 | [1] -0.042 | barasertib -0.039 | [2] 0.096 | volasertib 0.038 | [3] -0.044 | [4] -0.043 | [5] 0.028 | saracatinib 0.015 | sotrastaurin -0.008 | alvocidib 0.004 | Tubastatin A 0.039 | [6] 0.103 | defactinib -0.034 | [7] 0.049 | encorafenib 0.038 | [8] 0.033 | alisertib 0.018 | [9] 0.058 | gefitinib 0.038

SUPT4H1 (UniProt P63272)
inactive: vemurafenib 0.085 | [1] -0.029 | barasertib -0.007 | [2] 0.036 | volasertib 0.022 | [3] -0.05 | [4] 0.031 | [5] -0.009 | saracatinib 0.024 | sotrastaurin -0.09 | alvocidib 0.054 | Tubastatin A -0.009 | [6] 0.04 | defactinib 0.033 | [7] 0.061 | encorafenib -0.009 | [8] -0.101 | alisertib -0.01 | [9] 0.024 | gefitinib 0

Retrieved one by one from the list above, 2 records:
SYNGR2 (UniProt O43760)
inactive: vemurafenib -0.053 | [1] 0.003 | barasertib 0.067 | [2] -0.004 | volasertib 0.034 | [3] -0.019 | [4] -0.188 | [5] 0.016 | saracatinib 0.045 | sotrastaurin 0.014 | alvocidib -0.019 | Tubastatin A 0.046 | [6] 0.003 | defactinib 0.076 | [7] 0.02 | encorafenib 0.075 | [8] -0.034 | alisertib 0.04 | [9] -0.065 | gefitinib -0.032

SUPT6H (UniProt Q7KZ85)
inactive: vemurafenib 0.062 | [1] 0.03 | barasertib 0.091 | [2] 0.064 | volasertib -0.04 | [3] 0.056 | [4] -0.055 | [5] 0.015 | saracatinib -0.028 | sotrastaurin 0.008 | alvocidib -0.004 | Tubastatin A -0.065 | [6] -0.011 | defactinib 0.016 | [7] 0.026 | encorafenib 0.007 | [8] 0.041 | alisertib -0.021 | [9] 0.007 | gefitinib 0.025

Next results follow:

TADA3 (UniProt O75528)
inactive: vemurafenib -0.007 | [1] 0.004 | barasertib 0.002 | [2] 0.008 | volasertib -0.006 | [3] -0.022 | [4] -0.122 | [5] 0.006 | saracatinib -0.017 | sotrastaurin -0.012 | alvocidib 0.001 | Tubastatin A -0.04 | [6] 0.044 | defactinib -0.007 | [7] 0.06 | encorafenib 0.029 | [8] -0.024 | alisertib 0 | [9] 0.001 | gefitinib 0.03

STK36 (UniProt Q9NRP7)
inactive: vemurafenib 0.188 | [1] 0.038 | barasertib -0.073 | [2] 0.302 | volasertib 0.01 | [3] -0.445 | [4] -0.532 | [5] 0.442 | saracatinib 0.077 | sotrastaurin -0.072 | alvocidib -0.33 | Tubastatin A 0.331 | [6] -0.048 | defactinib -0.263 | [7] 0.528 | encorafenib -0.027 | [8] 0.042 | alisertib 0.081 | [9] 0.199 | gefitinib -0.093

STRN3 (UniProt Q13033)
inactive: vemurafenib -0.056 | [1] 0.04 | barasertib 0.006 | [2] -0.081 | volasertib -0.019 | [3] -0.025 | [4] 0.154 | [5] -0.112 | saracatinib -0.024 | sotrastaurin 0 | alvocidib 0.063 | Tubastatin A 0.036 | [6] 0.034 | defactinib 0.003 | [7] -0.05 | encorafenib 0.016 | [8] -0.014 | alisertib -0.045 | [9] -0.016 | gefitinib 0.051

SYNRG (UniProt Q9UMZ2)
inactive: vemurafenib -0.006 | [1] 0.022 | barasertib 0.015 | [2] 0.037 | volasertib 0 | [3] -0.019 | [4] 0.017 | [5] -0.1 | saracatinib 0.013 | sotrastaurin -0.009 | alvocidib 0.026 | Tubastatin A -0.016 | [6] -0.021 | defactinib 0.015 | [7] 0.002 | encorafenib -0.004 | [8] 0.024 | alisertib 0.033 | [9] 0.003 | gefitinib -0.006

STX10 (UniProt O60499)
inactive: vemurafenib 0.128 | [1] 0.008 | barasertib 0.01 | [2] 0.021 | volasertib -0.033 | [3] -0.013 | [4] 0.122 | [5] -0.04 | saracatinib -0.028 | sotrastaurin 0.016 | alvocidib 0.114 | Tubastatin A 0.037 | [6] -0.01 | defactinib -0.032 | [7] 0.031 | encorafenib 0.043 | [8] -0.076 | alisertib 0.044 | [9] 0.068 | gefitinib -0.001

TAF6 isoform 3 (UniProt P49848)
inactive: vemurafenib 0.015 | [1] -0.116 | barasertib -0.022 | [2] 0.118 | volasertib 0.002 | [3] 0.015 | [4] -0.052 | [5] -0.022 | saracatinib -0.061 | sotrastaurin 0.098 | alvocidib 0.076 | Tubastatin A -0.098 | [6] -0.038 | defactinib 0.128 | [7] -0.04 | encorafenib 0.023 | [8] 0.064 | alisertib -0.025 | [9] 0.019 | gefitinib -0.012

SYTL4 (UniProt Q96C24)
inactive: vemurafenib -0.015 | [1] -0.007 | barasertib -0.032 | [2] 0.083 | volasertib 0.01 | [3] 0.066 | [4] -0.074 | [5] -0.07 | saracatinib -0.002 | sotrastaurin -0.009 | alvocidib 0.044 | Tubastatin A -0.023 | [6] 0.024 | defactinib 0.03 | [7] 0.018 | encorafenib 0 | [8] 0.017 | alisertib -0.071 | [9] 0.17 | gefitinib -0.009

TAF12 (UniProt Q16514)
inactive: vemurafenib -0.017 | [1] -0.001 | barasertib -0.086 | [2] 0.025 | volasertib 0.017 | [3] 0.008 | [4] 0.06 | [5] -0.003 | saracatinib -0.019 | sotrastaurin -0.001 | alvocidib 0.021 | Tubastatin A -0.022 | [6] -0.027 | defactinib -0.033 | [7] 0.003 | encorafenib 0.076 | [8] 0.017 | alisertib -0.087 | [9] 0.05 | gefitinib 0.033

SUPT7L (UniProt O94864)
inactive: vemurafenib -0.009 | [1] -0.023 | barasertib -0.029 | [2] -0.006 | volasertib -0.008 | [3] 0.048 | [4] -0.029 | [5] 0.044 | saracatinib 0.206 | sotrastaurin -0.024 | alvocidib 0.011 | Tubastatin A -0.115 | [6] 0.064 | defactinib 0.026 | [7] 0.037 | encorafenib 0.095 | [8] 0.057 | alisertib 0.105 | [9] 0.07 | gefitinib 0.046

From the supplement of paper PMC10849652
